{"source": "patent US20250205238A1", "about": "“ANTI-CANCER COMBINATION THERAPY” (Boehringer Ingelheim International GmbH, priority 2023, published 2025)", "test_system": "ST524 patient derived colorectal carcinoma model (KRAS^G12C mutation)", "settings": "in any group; PO qd; zongertinib 20 mg/kg, adagrasib 100 mg/kg", "experimental": "The study is performed in 6-12 weeks old female Athymic Nude, Outbred Homozygous (Crl:NU(NCr)-Foxn1^nu) mice with a subcutaneous xenograft of the colorectal cancer cell line ST524.\nST524 is a patient derived colorectal carcinoma model that expresses a KRAS^G12C mutation.\nCompounds are administered with a volume of 10 ml/kg body weight.", "note": "Some entries share one result that the patent states for a list of compounds."}
{"smiles": "C=CC(=O)NC1CCN(c2ncc3ncnc(Nc4ccc(Oc5ccc6c(c5)ncn6C)c(C)c4)c3n2)CC1", "note": "[Zongertinib, N-{1-[8-({3-methyl-4-[(1-methyl-1H-1,3-benzodiazol-5-yl)oxy]phenyl}amino)-[1,3]diazino[5,4-d]pyrimidin-2-yl]piperidin-4-yl}prop-2-enamide]", "values": [{"measurement": "maximum mean weight loss", "value": "≤ 6", "unit": "%"}]}
